Some of the results follow.
What was measured:
Test in all cases: glycan array binding signal (z-score within array); higher = stronger binding
Conditions in all cases: glycan notation: IUPAC condensed, linker removed
[1] = biological target: Gal(b1-4)GlcNAc(b1-3)Gal(b1-4)GlcNAc(b1-2)[Gal(b1-4)GlcNAc(b1-3)Gal(b1-4)GlcNAc(b1-6)]Man(a1-6)[Gal(b1-4)GlcNAc(b1-3)Gal(b1-4)GlcNAc(b1-2)Man(a1-3)]Man(b1-4)GlcNAc(b1-4)GlcNAc
Method in brief: (§1)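 Columns mapping to the same glycan were averaged after glycan names were converted to IUPAC-condensed notation. The data come from 3228 arrays in the Consortium for Functional Glycomics database, limited to those with an available protein sequence. Binding is reported as a within-array Z-score averaged across arrays of one protein sequence and across linkers.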

[2] = biological target: Gal(b1-4)GlcNAc(b1-3)Gal(b1-4)GlcNAc(b1-2)[Gal(b1-4)GlcNAc(b1-3)Gal(b1-4)GlcNAc(b1-6)]Man(a1-6)[Gal(b1-4)GlcNAc(b1-3)Gal(b1-4)GlcNAc(b1-2)Man(a1-3)]Man(b1-4)GlcNAc(b1-4)[Fuc(a1-6)]GlcNAc
Method in brief: as §1

[3] = biological target: Gal(b1-4)GlcNAc(b1-3)Gal(b1-4)GlcNAc(b1-3)Gal(b1-4)GlcNAc
Method in brief: as §1

[4] = biological target: Gal(b1-4)GlcNAc(b1-3)Gal(b1-4)GlcNAc(b1-3)Gal(b1-4)GlcNAc(b1-2)Man(a1-3)[Gal(b1-4)GlcNAc(b1-3)Gal(b1-4)GlcNAc(b1-3)Gal(b1-4)GlcNAc(b1-2)Man(a1-6)]Man(b1-4)GlcNAc(b1-4)GlcNAc
Method in brief: as §1

[5] = biological target: Gal(b1-4)GlcNAc(b1-3)Gal(b1-4)GlcNAc(b1-3)Gal(b1-4)GlcNAc(b1-2)Man(a1-3)[Gal(b1-4)GlcNAc(b1-3)Gal(b1-4)GlcNAc(b1-3)Gal(b1-4)GlcNAc(b1-2)Man(a1-6)]Man(b1-4)GlcNAc(b1-4)[Fuc(a1-6)]GlcNAc
Method in brief: as §1

[6] = biological target: Gal(b1-4)GlcNAc(b1-3)Gal(b1-4)GlcNAc(b1-3)Gal(b1-4)GlcNAc(b1-2)[Gal(b1-4)GlcNAc(b1-3)Gal(b1-4)GlcNAc(b1-3)Gal(b1-4)GlcNAc(b1-6)]Man(a1-6)[Gal(b1-4)GlcNAc(b1-3)Gal(b1-4)GlcNAc(b1-3)Gal(b1-4)GlcNAc(b1-2)Man(a1-3)]Man(b1-4)GlcNAc(b1-4)[Fuc(a1-6)]GlcNAc
Method in brief: as §1

[7] = biological target: Gal(b1-4)GlcNAc(b1-3)Gal(b1-4)GlcNAc(b1-3)Gal(b1-4)GlcNAc(b1-3)Gal(b1-4)GlcNAc(b1-2)Man(a1-3)[Gal(b1-4)GlcNAc(b1-3)Gal(b1-4)GlcNAc(b1-3)Gal(b1-4)GlcNAc(b1-3)Gal(b1-4)GlcNAc(b1-2)Man(a1-6)]Man(b1-4)GlcNAc(b1-4)GlcNAc
Method in brief: as §1

[8] = biological target: Gal(b1-4)GlcNAc(b1-3)Gal(b1-4)GlcNAc(b1-3)Gal(b1-4)GlcNAc(b1-3)Gal(b1-4)GlcNAc(b1-2)Man(a1-3)[Gal(b1-4)GlcNAc(b1-3)Gal(b1-4)GlcNAc(b1-3)Gal(b1-4)GlcNAc(b1-3)Gal(b1-4)GlcNAc(b1-2)Man(a1-6)]Man(b1-4)GlcNAc(b1-4)[Fuc(a1-6)]GlcNAc
Method in brief: as §1

[9] = biological target: Gal(b1-4)GlcNAc(b1-3)Gal(b1-4)GlcNAc(b1-3)Gal(b1-4)GlcNAc(b1-3)Gal(b1-4)GlcNAc(b1-2)[Gal(b1-4)GlcNAc(b1-3)Gal(b1-4)GlcNAc(b1-3)Gal(b1-4)GlcNAc(b1-3)Gal(b1-4)GlcNAc(b1-6)]Man(a1-6)[Gal(b1-4)GlcNAc(b1-3)Gal(b1-4)GlcNAc(b1-3)Gal(b1-4)GlcNAc(b1-3)Gal(b1-4)GlcNAc(b1-2)Man(a1-3)]Man(b1-4)GlcNAc(b1-4)[Fuc(a1-6)]GlcNAc
Method in brief: as §1

[10] = biological target: Gal(b1-4)GlcNAc(b1-3)Gal(b1-4)GlcNAc(b1-3)Gal(b1-4)GlcNAc(b1-3)Gal(b1-4)GlcNAc(b1-3)Gal(b1-4)GlcNAc(b1-2)Man(a1-3)[Gal(b1-4)GlcNAc(b1-3)Gal(b1-4)GlcNAc(b1-3)Gal(b1-4)GlcNAc(b1-3)Gal(b1-4)GlcNAc(b1-3)Gal(b1-4)GlcNAc(b1-2)Man(a1-6)]Man(b1-4)GlcNAc(b1-4)GlcNAc
Method in brief: as §1

[11] = biological target: Gal(b1-4)GlcNAc(b1-3)Gal(b1-4)GlcNAc(b1-3)Gal(b1-4)GlcNAc(b1-3)Gal(b1-4)GlcNAc(b1-3)Gal(b1-4)GlcNAc(b1-2)Man(a1-3)[Gal(b1-4)GlcNAc(b1-3)Gal(b1-4)GlcNAc(b1-3)Gal(b1-4)GlcNAc(b1-3)Gal(b1-4)GlcNAc(b1-3)Gal(b1-4)GlcNAc(b1-2)Man(a1-6)]Man(b1-4)GlcNAc(b1-4)[Fuc(a1-6)]GlcNAc
Method in brief: as §1

[12] = biological target: Gal(b1-4)GlcNAc(b1-3)Gal(b1-4)GlcNAc(b1-3)Gal(b1-4)GlcNAc(b1-3)Gal(b1-4)GlcNAc(b1-3)Gal(b1-4)GlcNAc(b1-2)[Gal(b1-4)GlcNAc(b1-3)Gal(b1-4)GlcNAc(b1-3)Gal(b1-4)GlcNAc(b1-3)Gal(b1-4)GlcNAc(b1-3)Gal(b1-4)GlcNAc(b1-6)]Man(a1-6)[Gal(b1-4)GlcNAc(b1-3)Gal(b1-4)GlcNAc(b1-3)Gal(b1-4)GlcNAc(b1-3)Gal(b1-4)GlcNAc(b1-3)Gal(b1-4)GlcNAc(b1-2)Man(a1-3)]Man(b1-4)GlcNAc(b1-4)[Fuc(a1-6)]GlcNAc
Method in brief: as §1

[13] = biological target: Gal(b1-4)GlcNAc(b1-3)Gal(b1-4)GlcNAc(b1-3)Gal(b1-4)GlcNAc(b1-3)Gal(b1-4)GlcNAc(b1-3)Gal(b1-4)GlcNAc(b1-3)Gal(b1-4)GlcNAc(b1-2)Man(a1-3)[Gal(b1-4)GlcNAc(b1-3)Gal(b1-4)GlcNAc(b1-3)Gal(b1-4)GlcNAc(b1-3)Gal(b1-4)GlcNAc(b1-3)Gal(b1-4)GlcNAc(b1-3)Gal(b1-4)GlcNAc(b1-2)Man(a1-6)]Man(b1-4)GlcNAc(b1-4)GlcNAc
Method in brief: as §1

[14] = biological target: Gal(b1-4)GlcNAc(b1-3)Gal(b1-4)GlcNAc(b1-3)GalNAc
Method in brief: as §1

[15] = biological target: Gal(b1-4)GlcNAc(b1-3)Gal(b1-4)GlcNAc(b1-3)[Gal(b1-4)GlcNAc(b1-3)Gal(b1-4)GlcNAc(b1-6)]GalNAc
Method in brief: as §1

[16] = biological target: Gal(b1-4)GlcNAc(b1-3)Gal(b1-4)GlcNAc(b1-6)[Gal(b1-3)]GalNAc
Method in brief: as §1

[17] = biological target: Gal(b1-4)GlcNAc(b1-3)Gal(b1-4)[Fuc(a1-3)]GlcNAc(b1-3)Gal(b1-4)[Fuc(a1-3)]GlcNAc
Method in brief: as §1

[18] = biological target: Gal(b1-4)GlcNAc(b1-3)GalNAc
Method in brief: as §1

[19] = biological target: Gal(b1-4)GlcNAc(b1-3)[Fuc(a1-3)GlcNAc(b1-6)]Gal(b1-4)Glc
Method in brief: as §1

[20] = biological target: Gal(b1-4)GlcNAc(b1-3)[Gal(b1-4)GlcNAc(b1-6)]Gal(b1-4)GlcNAc
Method in brief: as §1

[21] = biological target: Gal(b1-4)GlcNAc(b1-3)[GlcNAc(b1-6)]Gal(b1-4)GlcNAc
Method in brief: as §1

[22] = biological target: Gal(b1-4)GlcNAc(b1-6)Gal(b1-4)GlcNAc
Method in brief: as §1

[23] = biological target: Gal(b1-4)GlcNAc(b1-6)GalNAc
Method in brief: as §1

[24] = biological target: Gal(b1-4)GlcNAc(b1-6)[Gal(b1-3)]GalNAc
Method in brief: as §1

[25] = biological target: Gal(b1-4)GlcNAc(b1-6)[Gal(b1-4)GlcNAc(b1-3)]GalNAc
Method in brief: as §1

Gal(b1-4)GlcNAc6P = biological target: Gal(b1-4)GlcNAc6P
Method in brief: as §1

Gal(b1-6)Gal = biological target: Gal(b1-6)Gal
Method in brief: as §1

Gal3S(b1-3)GalNAc = biological target: Gal3S(b1-3)GalNAc
Method in brief: as §1

Gal3S(b1-3)GlcNAc = biological target: Gal3S(b1-3)GlcNAc
Method in brief: as §1

[26] = biological target: Gal3S(b1-3)[Fuc(a1-4)]GlcNAc
Method in brief: as §1

Gal3S(b1-4)Glc = biological target: Gal3S(b1-4)Glc
Method in brief: as §1

Gal3S(b1-4)Glc6S = biological target: Gal3S(b1-4)Glc6S
Method in brief: as §1

Gal3S(b1-4)GlcNAc = biological target: Gal3S(b1-4)GlcNAc
Method in brief: as §1

[27] = biological target: Gal3S(b1-4)[Fuc(a1-3)]Glc6S
Method in brief: as §1

[28] = biological target: Gal3S(b1-4)[Fuc(a1-3)]GlcNAc
Method in brief: as §1

[29] = biological target: Gal3S(b1-4)[Fuc(a1-3)]GlcNAc6S
Method in brief: as §1

Gal3S4S(b1-4)GlcNAc = biological target: Gal3S4S(b1-4)GlcNAc
Method in brief: as §1

B1: PX9961W-pdi-543-27-543 (Parabacteroides distasonis) (protein)
chain: EGNATTTSYFLNDQQAIDAIDGLYERFHQEGCYGRELFWEQGAACDIVWGRTRGYNSLATLAYTGDESPLRDVFSRMYSTMSRANWIIQELVKKEKGTTLTAVEKRSLGEAYFSRGWAHYLIAYRYGTDKQGVPFVRYEDFPDDYDNSIPPQQATVMDNYKLIIEDMDKAIAYLPIFESYDADNRGRAHQAAAVAFKAKTYAYWATWDATQWNNVIEMVNQLENNYNRDLAPTFAELFSSDLKDYWNAEYLWTIPSIGGALPGGTEFPGIILENKGWGKYNGWGQMKPSYDIYEEMAKDGKGNDRLVRSILEYNQEFPFFGETRKFWSTSDLEAGFMINKYMDAFKYSDPVGEGAVSANGDWPTVRVNFPIIRFAEMLLFRAEAYLMTGQADKATADINRIRLRSNLTPLTGTATMKDLYHERRCELAFEFTDHLFDLKRWNRSSNADIKTLADKELNAHPRIRRYEDRANPESAFTIIGYEDYTNKNAYQAHMMVFPYPSEEITKSNGQLKQNEGY
Q: Which “glycan array binding signal (z-score)” value [1] does the source give for B1 here?
A: -0.382

Q: What about the “glycan array binding signal (z-score)” value [2] of the same binder?
A: 1.57

Q: And the “glycan array binding signal (z-score)” value [3]?
A: 0.348

Q: What about the “glycan array binding signal (z-score)” value [4] of the same binder?
A: 1.65

Q: And the “glycan array binding signal (z-score)” value [5]?
A: -0.332

Q: And the “glycan array binding signal (z-score)” value [6]?
A: 0.985

Q: What about the “glycan array binding signal (z-score)” value [7] of the same binder?
A: 0.195

Q: What about the “glycan array binding signal (z-score)” value [8] of the same binder?
A: 0.259

Q: What about the “glycan array binding signal (z-score)” value [9] of the same binder?
A: 0.578

Q: And the “glycan array binding signal (z-score)” value [10]?
A: 0.744

Q: What about the “glycan array binding signal (z-score)” value [11] of the same binder?
A: 0.35

Q: What about the “glycan array binding signal (z-score)” value [12] of the same binder?
A: 2.95

Q: What about the “glycan array binding signal (z-score)” value [13] of the same binder?
A: 0.402

Q: What about the “glycan array binding signal (z-score)” value [14] of the same binder?
A: -0.639

Q: And the “glycan array binding signal (z-score)” value [15]?
A: -0.268

Q: What about the “glycan array binding signal (z-score)” value [16] of the same binder?
A: -0.638

Q: What about the “glycan array binding signal (z-score)” value [17] of the same binder?
A: 1.86

Q: And the “glycan array binding signal (z-score)” value [18]?
A: -0.238

Q: What about the “glycan array binding signal (z-score)” value [19] of the same binder?
A: -0.958

Q: And the “glycan array binding signal (z-score)” value [20]?
A: -0.075

Q: And the “glycan array binding signal (z-score)” value [21]?
A: -1.13

Q: And the “glycan array binding signal (z-score)” value [22]?
A: -0.586

Q: And the “glycan array binding signal (z-score)” value [23]?
A: 0.97

Q: What about the “glycan array binding signal (z-score)” value [24] of the same binder?
A: -0.001

Q: What about the “glycan array binding signal (z-score)” value [25] of the same binder?
A: 1.05

Q: What about the “glycan array binding signal (z-score)” value (Gal(b1-4)GlcNAc6P) of the same binder?
A: 0.296

Q: What about the “glycan array binding signal (z-score)” value (Gal(b1-6)Gal) of the same binder?
A: 0.182

Q: What about the “glycan array binding signal (z-score)” value (Gal3S(b1-3)GalNAc) of the same binder?
A: -0.868

Q: What about the “glycan array binding signal (z-score)” value (Gal3S(b1-3)GlcNAc) of the same binder?
A: 0.28

Q: What about the “glycan array binding signal (z-score)” value [26] of the same binder?
A: 0.065

Q: And the “glycan array binding signal (z-score)” value (Gal3S(b1-4)Glc)?
A: 0.315

Q: What about the “glycan array binding signal (z-score)” value (Gal3S(b1-4)Glc6S) of the same binder?
A: 0.787

Q: What about the “glycan array binding signal (z-score)” value (Gal3S(b1-4)GlcNAc) of the same binder?
A: 0.114

Q: And the “glycan array binding signal (z-score)” value [27]?
A: 1.71

Q: And the “glycan array binding signal (z-score)” value [28]?
A: 0.558

Q: What about the “glycan array binding signal (z-score)” value [29] of the same binder?
A: -0.111

Q: What about the “glycan array binding signal (z-score)” value (Gal3S4S(b1-4)GlcNAc) of the same binder?
A: 0.062
